Test results published in patent US20210071229A1, “FIBRINOGEN TEST” (DSM IP Assets B.V., priority 2018, published 2021).
Where “and” joins values, the source holds several entries; their conditions need not be identical. Equal values may be shown once. At least one structure is not confirmed: it was looked up by name or label, or the drawing left a doubt.

Test system: control plasma
Assay: activated Partial Thromboplastin Time (aPTT) clotting test, spiked control plasma, BCS-XP
Format: biochemical

**Q.** For `[H]/N=C(/N)c1ccc(NCc2nc3cc(C(=O)N(CCC(=O)O)c4ccccn4)ccc3n2C)cc1` [Dabigatran], which “aPTT-test CT” value (31 ng/ml in plasma) is on record?
**A.** 41.3 s and 41.2 s

**Q.** And the “aPTT-test Mean” value (31 ng/ml in plasma)?
**A.** 41.28 s

**Q.** And the aPTT-test delay (31 ng/ml in plasma)?
**A.** 28%

**Q.** What about the “aPTT-test CT” value (500 ng/ml in plasma) of the same compound?
**A.** 91.09 s and 90.87 s

**Q.** What about the “aPTT-test Mean” value (500 ng/ml in plasma) of the same compound?
**A.** 90.98 s

**Q.** And the aPTT-test delay (500 ng/ml in plasma)?
**A.** 183%
